For some of these results: At least one structure is not confirmed: it was looked up by name or label, or the drawing left a doubt. Some of these results come from one statement about several compounds together.
Assays:
AuroraA = biological target: T1, AuroraA (Homo sapiens, UniProt O14965); test: Aurora A kinase assay (DELFIA); format: biochemical; conditions: 15 μM ATP
T1 construct: purchased Upstate Discovery
T1 sequence (O14965 1-403): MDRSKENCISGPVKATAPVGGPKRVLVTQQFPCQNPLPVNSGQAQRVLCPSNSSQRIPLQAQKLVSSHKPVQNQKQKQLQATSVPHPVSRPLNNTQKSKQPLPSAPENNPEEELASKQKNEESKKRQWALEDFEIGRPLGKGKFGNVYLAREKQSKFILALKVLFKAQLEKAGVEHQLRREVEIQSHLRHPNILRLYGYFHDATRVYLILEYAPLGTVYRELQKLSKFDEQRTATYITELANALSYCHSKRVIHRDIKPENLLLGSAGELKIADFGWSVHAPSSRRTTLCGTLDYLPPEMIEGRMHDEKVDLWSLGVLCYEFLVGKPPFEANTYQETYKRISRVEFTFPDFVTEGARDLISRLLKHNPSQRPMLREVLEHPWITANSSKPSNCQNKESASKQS

[1] = tested on: chronic lymphocytic leukaemia; conditions: symptomatic CLL patients, initial therapy; v 3% with alkylator-based therapies; cited from earlier work

| SMILES | IC50 (AuroraA) [nM] | rate of complete responses [1] [%] |
| --- | --- | --- |
| O=C(Nc1scnc1-c1nc2ccccc2[nH]1)c1c(F)cccc1F [Example 1, N-[4-(1H-benzoimidazol-2-yl)-thiazol-5-yl]-2,6-difluoro-benzamide] | < 100 |  |
| O=C(Nc1csnc1-c1nc2cc(CN3CCOCC3)ccc2[nH]1)c1c(F)cccc1F [Example 3, 2,6-difluoro-N-[3-(5-morpholin-4-ylmethyl-1H-benzoimidazol-2-yl)-isothiazol-4-yl]-benzamide] | < 100 |  |
| Nc1nc(F)nc2c1ncn2[C@@H]1O[C@H](CO)[C@@H](O)[C@@H]1O [fludarabine] |  | 27 |
| O=C(Nc1scnc1-c1nc2ccc(CN3CCOCC3)cc2[nH]1)c1c(F)cccc1F [Example 2, 2,6-difluoro-N-[4-(6-morpholin-4ylmethyl-1H-benzoimidazol-2-yl)-thiazol-5-yl]benzamide] | < 100 |  |

From US20080312223A1, “Thiazole And Isothiazole Derivatives That Modulate The Activity Of CDK, GSK And Aurora Kinases” (ASTEX THERAPEUTICS LIMITED, priority 2004, published 2008)
